# Screening data

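Malaria parasite (P. falciparum) lines kept in red blood cells; parasite DNA is measured by SYBR Green fluorescence after lysis, 72 h after compound addition.
Each compound was titrated across a series from about 0.000037 to 29 µM.
The number is the fitted AC50, the concentration giving a half-maximal change in signal; a lower value means higher potency, whether the curve shows a decrease or an increase.
Calls follow the curve class and fit quality: every row here is inconclusive, covering signal-raising curves and weak, poorly fitted, partial or highest-dose-only inhibition curves.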

Values are in nM.
Every entry below has the call inconclusive.
Only part of the assay is shown, chiefly results filed as inconclusive.
Potencies fitted to partial, single-point or poorly fitting curves are rough.
The first word of each remark tells which way the curve ran; it can be opposite to the aim of the assay.

{"structure": "NC1CCN(c2cccc(Cl)n2)CC1", "setting": "7G8", "potency (nM)": "12589", "curve as filed": "inhibitor, partial curve"}
{"structure": "NC1CCN(c2cccc(Cl)n2)CC1", "setting": "P93_24", "potency (nM)": "7943", "curve as filed": "inhibitor, partial curve"}
{"structure": "NC1CCN(c2cccc(Cl)n2)CC1", "setting": "AA1029", "potency (nM)": "8912", "curve as filed": "inhibitor, partial curve, poor fit"}
{"structure": "NC1CCN(c2cccc(Cl)n2)CC1", "setting": "P94_40", "potency (nM)": "11220", "curve as filed": "inhibitor, single point"}
{"structure": "NC1CCN(c2cccc(Cl)n2)CC1", "setting": "DIV14", "potency (nM)": "7569", "curve as filed": "inhibitor, partial curve, poor fit"}
{"structure": "CCCCCCCCCCCCCCCCOP(=O)([O-])OCC[N+](C)(C)C", "setting": "7G8", "potency (nM)": "17782", "curve as filed": "inhibitor, single point"}
{"structure": "CCCCCCCCCCCCCCCCOP(=O)([O-])OCC[N+](C)(C)C", "setting": "CP297", "potency (nM)": "15101", "curve as filed": "activator, single point"}
{"structure": "CCCCCCCCCCCCCCCCOP(=O)([O-])OCC[N+](C)(C)C", "setting": "GB4", "potency (nM)": "19011", "curve as filed": "inhibitor, single point"}
{"structure": "Nc1ccc(C(=O)Oc2ccccc2)c(O)c1", "setting": "CP215", "potency (nM)": "19011", "curve as filed": "inhibitor, single point"}
{"structure": "Nc1ccc(C(=O)Oc2ccccc2)c(O)c1", "setting": "DIV14", "potency (nM)": "4256", "curve as filed": "activator, partial curve, poor fit"}
{"structure": "OCCOCCOCCO", "setting": "CP329", "potency (nM)": "16944", "curve as filed": "inhibitor, single point"}
{"structure": "OCCOCCOCCO", "setting": "PC26", "potency (nM)": "19011", "curve as filed": "inhibitor, single point"}
{"structure": "OCCOCCOCCO", "setting": "GB4", "potency (nM)": "15101", "curve as filed": "inhibitor, single point"}
{"structure": "OCCOCCOCCO", "setting": "DIV17", "potency (nM)": "19011", "curve as filed": "inhibitor, single point"}
{"structure": "OCCOCCOCCO", "setting": "CP315", "potency (nM)": "19011", "curve as filed": "inhibitor, single point"}
{"structure": "OCCOCCOCCO", "setting": "CP266", "potency (nM)": "19011", "curve as filed": "inhibitor, single point"}
{"structure": "OCCOCCOCCO", "setting": "CP203", "potency (nM)": "16944", "curve as filed": "inhibitor, single point"}
{"structure": "OCCOCCOCCO", "setting": "DIV14", "potency (nM)": "19011", "curve as filed": "inhibitor, single point"}
{"structure": "OCCOCCOCCO", "setting": "CP297", "potency (nM)": "16944", "curve as filed": "inhibitor, single point"}
{"structure": "OCCOCCOCCO", "setting": "CP192", "potency (nM)": "16944", "curve as filed": "inhibitor, single point"}
{"structure": "OCCOCCOCCO", "setting": "CP194", "potency (nM)": "16944", "curve as filed": "inhibitor, single point"}
{"structure": "OCCOCCOCCO", "setting": "CP305", "potency (nM)": "13459", "curve as filed": "inhibitor, single point"}
{"structure": "C[N+]1(CCC(C(N)=O)(c2ccccc2)c2ccccc2)CCCCC1", "setting": "CP325", "potency (nM)": "1", "curve as filed": "activator"}
{"structure": "CC(Cc1ccccc1)N(C)C", "stereo": "stereo not given", "setting": "CP262", "potency (nM)": "15101", "curve as filed": "inhibitor, partial curve, poor fit"}
{"structure": "CC(Cc1ccccc1)N(C)C", "stereo": "stereo not given", "setting": "CP268", "potency (nM)": "13459", "curve as filed": "inhibitor, single point"}
{"structure": "CC(Cc1ccccc1)N(C)C", "stereo": "stereo not given", "setting": "7G8", "potency (nM)": "3981", "curve as filed": "inhibitor, full curve, poor fit"}
{"structure": "CC(Cc1ccccc1)N(C)C", "stereo": "stereo not given", "setting": "W2", "potency (nM)": "10690", "curve as filed": "inhibitor, single point"}
{"structure": "CC(Cc1ccccc1)N(C)C", "stereo": "stereo not given", "setting": "GB4", "potency (nM)": "11995", "curve as filed": "inhibitor, partial curve, poor fit"}
{"structure": "COc1ccccc1N1CCN(CCCCNC(=O)c2ccc(-c3ccc(C(C)=O)cc3)cc2)CC1", "setting": "CP237", "potency (nM)": "11220", "curve as filed": "inhibitor, single point"}
{"structure": "COc1ccccc1N1CCN(CCCCNC(=O)c2ccc(-c3ccc(C(C)=O)cc3)cc2)CC1", "setting": "CP286", "potency (nM)": "8912", "curve as filed": "inhibitor, single point"}
{"structure": "OC(CN1CCC(Cc2ccc(F)cc2)CC1)c1ccc(Cl)cc1", "stereo": "stereo not given", "setting": "CP192", "potency (nM)": "4256", "curve as filed": "inhibitor, partial curve, poor fit"}
{"structure": "OC(CN1CCC(Cc2ccc(F)cc2)CC1)c1ccc(Cl)cc1", "stereo": "stereo not given", "setting": "CP256", "potency (nM)": "354.8", "curve as filed": "inhibitor, full curve, poor fit"}

Some entries from above, unchanged:

{"structure": "CCCCCCCCCCCCCCCCOP(=O)([O-])OCC[N+](C)(C)C", "setting": "CP297", "potency (nM)": "15101", "curve as filed": "activator, single point"}
{"structure": "CCCCCCCCCCCCCCCCOP(=O)([O-])OCC[N+](C)(C)C", "setting": "7G8", "potency (nM)": "17782", "curve as filed": "inhibitor, single point"}
{"structure": "CC(Cc1ccccc1)N(C)C", "stereo": "stereo not given", "setting": "CP262", "potency (nM)": "15101", "curve as filed": "inhibitor, partial curve, poor fit"}

Data taken from PubChem BioAssay AID504749, deposited by NCATS (2011).